Experimental data reported in article PMC10197891.
These are yes or no findings as the source states them, for the method shown. Binding seen in cells or lysates may run through a third protein. Some results given as binding are weak or reduced against the parent protein; the word gives no strength.

Target: T1, activating transcription factor 2 (ATF2) (human (endogenous in Hep 3B, Hep 3B/DR, SK-Hep 1)), P15336
T1 chain: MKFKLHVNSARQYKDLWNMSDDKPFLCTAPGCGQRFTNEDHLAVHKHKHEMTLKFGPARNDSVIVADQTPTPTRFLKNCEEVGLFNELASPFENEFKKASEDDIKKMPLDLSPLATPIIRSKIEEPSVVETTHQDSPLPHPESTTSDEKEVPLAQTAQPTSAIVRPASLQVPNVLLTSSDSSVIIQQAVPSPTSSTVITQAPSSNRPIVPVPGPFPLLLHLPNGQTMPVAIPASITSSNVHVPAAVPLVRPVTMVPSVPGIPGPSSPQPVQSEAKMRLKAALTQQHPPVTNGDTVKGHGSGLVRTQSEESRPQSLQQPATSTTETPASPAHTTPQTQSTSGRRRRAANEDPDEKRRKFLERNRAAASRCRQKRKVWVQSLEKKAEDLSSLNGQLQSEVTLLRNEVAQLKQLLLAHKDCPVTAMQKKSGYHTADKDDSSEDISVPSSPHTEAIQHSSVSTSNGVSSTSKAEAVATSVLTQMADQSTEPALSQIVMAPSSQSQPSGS
Assay: co-IP; endogenous proteins; RIPA lysates of Hep 3B, SK-Hep 1 (with or without 20 uM CDDP for 18 h) and Hep 3B/DR cells; 600 ug protein with primary antibody or IgG overnight at 4°C, Dynabeads Protein A 1 h at room temperature, five washes with RIPA, western blot
Details: remark: other sources report otherwise

B1: c-Jun, P05412 1-331 (protein)
chain: MTAKMETTFYDDALNASFLPSESGPYGYSNPKILKQSMTLNLADPVGSLKPHLRAKNSDLLTSPDVGLLKLASPELERLIIQSSNGHITTTPTPTQFLCPKNVTDEQEGFAEGFVRALAELHSQNTLPSVTSAAQPVNGAGMVAPAVASVAGGSGSGGFSASLHSEPPVYANLSNFNPGALSSGGGAPSYGAAGLAFPAQPQQQQQPPHHLPQQMPVQHPRLQALKEEPQTVPEMPGETPPLSPIDMESQERIKAERKRMRNRIAASKCRKRKLERIARLEEKVKTLKAQNSELASTANMLREQVAQLKQKVMNHVNSGCQLMLTQQLQTF
With B1 as the binder, how does the binding read?
Its binding is “binds”.
